Assay results from PubChem BioAssay AID2718 (Broad Institute, 2010).
In all, about 320,000 compounds went through this assay and about 480 (0.15%) were called active. Inconclusive means that the source gave no clear call. Such entries were picked first, then a sample of the others. Cut-off read from the data, not from the text of the source: active = inhibition above about 26% (passing the limit was not always enough); inconclusive = no clear call, values can overlap the other calls.

By UniProt entry, the sequences of proteins in these tests, tags left out.
UniProt O15379, whole entry, looked up: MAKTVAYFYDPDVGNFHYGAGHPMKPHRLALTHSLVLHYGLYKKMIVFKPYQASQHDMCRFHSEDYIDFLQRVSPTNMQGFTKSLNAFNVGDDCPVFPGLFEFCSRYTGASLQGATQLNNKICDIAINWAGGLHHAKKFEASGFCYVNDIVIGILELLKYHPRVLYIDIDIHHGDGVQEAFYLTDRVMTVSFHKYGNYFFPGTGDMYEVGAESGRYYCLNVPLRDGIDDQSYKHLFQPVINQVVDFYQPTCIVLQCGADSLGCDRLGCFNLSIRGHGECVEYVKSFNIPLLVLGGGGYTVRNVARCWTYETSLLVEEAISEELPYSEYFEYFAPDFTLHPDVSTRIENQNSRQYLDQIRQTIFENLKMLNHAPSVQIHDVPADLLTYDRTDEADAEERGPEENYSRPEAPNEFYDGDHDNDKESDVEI

Biological target: Histone deacetylase 3 (Homo sapiens) (UniProt O15379)
Assay: HDAC3 deacetylase inhibitors, primary screen, biochemical, fluorescence, cell-free homogeneous (AID 2718)
Conditions: recombinant HDAC3, fluorogenic peptide/trypsin coupled, at 8.3 µM, hits give high values

Row | Structure (SMILES) | inhibition
1 | CC1=Nc2ccccc2N=C(NC(=O)c2ccccc2)C1c1ccccc1 (stereo not given) | active: 34.2%
2 | O=C(Nc1ccccc1C(=O)Nc1nnc(C(F)(F)F)s1)c1ccccc1 | inactive: -5%
3 | COCCOC(=O)c1c(NC(=O)CN2CCOCC2)sc(C(N)=O)c1C | inconclusive: 26.9%
4 | COc1ccc(OC)c(C2CC(=O)N3CN(c4ccccc4F)CSC3=C2C#N)c1 (stereo not given) | inconclusive: 36.6%
5 | COc1ccc(-n2sc3ccc(F)cc3c2=O)cc1 | inconclusive: 32.8%
6 | Cc1c(Cl)c([N+](=O)[O-])nn1CC(=O)NCc1cccnc1 | inconclusive: 17.4%
7 | COc1cccc(C(=O)NC(=S)Nc2ccc3c4c(cccc24)CC3)c1 | inactive: -2.55%
8 | CC1CCCCC1NC(=O)C1CCN(S(=O)(=O)N2CCOCC2)CC1 (stereo not given) | inconclusive: 15%
9 | Cc1ccccc1-n1ncc2c1CC(C)(C)CC2NC(=O)CCC(F)(F)F (stereo not given) | inconclusive: 26.4%
10 | CN(C)c1ccc(Nc2c3c4c(cccc4n(C)c2=O)C(=O)c2ccccc2-3)cc1 | inconclusive: 9.91%
11 | CCCc1cc(C(=O)NNC(=S)NCc2ccccc2)cs1 | inactive: -3.71%
12 | CCOC(=O)C1CCN(C(=O)COc2ccc(N(C)S(=O)(=O)c3cccs3)cc2)CC1 | inconclusive: 45.7%
13 | O=C(OCc1nnc(-c2ccc(Cl)cc2)o1)c1ccncc1 | inconclusive: 10.1%
14 | C#CCOCCOCCOCCNc1nc(N2CCN(C(=O)Cn3cc(CCCN=C(N)N)nn3)CC2)nc(N2CCN(C(=O)[C@H](C)n3cc(CCCN=C(N)N)nn3)CC2)n1 | inconclusive: 24.7%
15 | C=CCN1c2ccccc2[C@]23C[C@@H](C(=O)OC)N(C(=O)c4cc(C)oc4C)C2=NC(C(=O)OC)=C(C(=O)OC)[C@H]13 | inactive: -3.68%
16 | C=C1C2(C(=O)NCc3ccco3)CCC(C2)C1(C)C (stereo not given) | inconclusive: 20.3%
17 | CCn1c2ccccc2c2cc(/C=N/n3cnnc3)ccc21 | inactive: -13.1%
18 | O=C(O)CCCCCn1c(SCc2cc(=O)n3cc(Cl)ccc3n2)nc2ccsc2c1=O | inactive: -2.78%
19 | O=c1c2[nH]c3ccccc3c2nc2n1CCCS2 | inconclusive: 16.9%
20 | CCc1cccc(NC(=O)C2CCCN(S(=O)(=O)c3cccs3)C2)c1 (stereo not given) | inactive: 4.46%
21 | COc1ccc(/C=N/NC(=O)c2cccc([N+](=O)[O-])c2)cc1OC(=O)c1ccc(C)cc1 | inconclusive: 23.8%
22 | CCn1c(SCc2nc3sc(C(=O)O)c(C)c3c(=O)[nH]2)nnc1-c1ccc(Cl)cc1 | inactive: 1.12%

Row | Structure (SMILES) | inhibition
23 | O=C(NO)c1ccc(C(=O)N(C2CCCCC2)C2CCCCC2)cc1 | inconclusive: 16.4%
24 | COc1cc(S(=O)(=O)N2CCOCC2)ccc1NC(=O)COC(=O)CC12CC3CC(CC(C3)C1)C2 | inconclusive: 16.3%
25 | Cc1cccc(N2CC(C(=O)OCC(=O)c3ccc(OC(=O)c4cccs4)cc3)CC2=O)c1C (stereo not given) | inconclusive: 46.4%
26 | CCn1cc(C(=O)N2CCCc3ccccc32)c2cc(OC)c(OC)cc2c1=O | inconclusive: 22.9%
27 | O=[N+]([O-])c1ccc(Oc2cnc3ccccc3n2)cc1 | inactive: 0.171%
28 | CC(C)n1c(SCC(=O)N2CCCC2)nc2c1c(=O)n(C)c(=O)n2C | inconclusive: 20.3%
29 | COc1ccc(C)cc1-n1nnnc1SCc1cc(=O)n2cc(C)ccc2n1 | inconclusive: 27.9%
30 | CCn1c(CCNC(=O)c2ccc(F)cc2)nc2ccccc21 | inconclusive: 10.6%
31 | CC(C)c1ccc(OCC(=O)Nc2cccc(C(=O)Nc3ccccc3C(=O)O)c2)cc1 | inactive: 5.39%
32 | Cc1ccc(S(=O)(=O)N2CCC(=O)N(C(COCc3ccc(C(F)(F)F)cc3)Cc3ccccc3)CC2)cc1 (stereo not given) | inactive: -2.07%
33 | Cc1ccc(C(=O)COC(=O)c2cc(Cl)nc3ccccc23)cc1 | inconclusive: 13.3%
34 | COc1ccc(-c2csc(NC(=O)[C@H](C)N3C(=O)C4CC=CCC4C3=O)n2)cc1OC (stereo not given in full) | inconclusive: 15.4%
35 | Cc1cc(C)n2nc(CC(=O)NNC(=O)COc3ccccc3)nc2n1 | inconclusive: 17.5%
36 | CCCn1nc(Oc2nc(SC)nc(N(C)C)n2)ccc1=O | inconclusive: 18%
37 | O=C(CC1C(=O)NCCN1C1CCCC1)NCc1cccc(OC(F)(F)F)c1 (stereo not given) | inactive: 16.6%
38 | COc1cc(Cl)ccc1OCc1cc(C(=O)N[C@H]2CCCCNC2=O)no1 | inconclusive: 21.8%
39 | Cc1cc(NC(=O)CSc2nnc(C(C)N(C)C)n2-c2ccc(F)cc2)no1 (stereo not given) | inactive: 1.53%
40 | Cc1ccc(CNC(=O)CN2CCN(Cc3ccc(Cl)cc3)C2=O)cc1 | inconclusive: 14.5%
41 | Cc1cc(N2C(=O)C(O)=C(C(=O)c3ccc(C)o3)C2c2ccc([N+](=O)[O-])cc2)no1 (stereo not given) | inactive: 4.36%
42 | O=C(Nc1ccc(-n2cc(Cl)cn2)cc1)c1ccncc1 | inconclusive: 21.4%
43 | CCCCCCCCCCCCCCCCn1cc[n+](C)c1 | inconclusive: 33.4%
44 | COc1cc(C2C(C#N)=C(N)N(c3sc4c(c3C#N)CCCC4)C3=C2C(=O)CC(C)(C)C3)cc(OC)c1OC (stereo not given) | inconclusive: 26.1%

Row | Structure (SMILES) | inhibition
45 | COc1ccc(Cl)cc1NC(=O)C1CCCO1 (stereo not given) | inconclusive: 9.03%
46 | CCC(Cc1ccccc1)NC(=O)CCn1cccc1 (stereo not given) | inconclusive: 5.59%
47 | Cc1ccc2c(c1)-c1cc(C)nn1C(c1ccc3c(c1)OCO3)N2 (stereo not given) | inactive: -3.9%
48 | Cc1ccc(N=C2NC(=O)CS2)c(C)c1 | inconclusive: 27.6%
49 | COC(=O)C(C)Sc1nnc(Cc2cc(=O)[nH]c(=O)[nH]2)n1-c1cc(C)ccc1C (stereo not given) | inactive: 1.49%
50 | COCCSc1ccccc1C(=O)N1CCN(c2ccccc2OC)CC1 | inconclusive: 12%
51 | CCc1ccccc1NC(=O)CCNS(=O)(=O)c1ccc2c(c1)CCC(=O)N2 | inconclusive: 15.6%
52 | O=C(Cc1ccc([N+](=O)[O-])cc1)N/N=C/c1cccs1 | inconclusive: 18%
53 | COc1ccc(OC)c(CNC(=O)C2CCC(=O)N(CCCN3CCCC3=O)C2)c1 (stereo not given) | inactive: -2.57%
54 | CC(C)(C)OC(=O)NCCCC[C@H](NC(=O)c1nc[nH]c1C(=O)N1CCc2ccccc2C1)C(=O)OC(C)(C)C | inconclusive: 26.3%
55 | Cc1cc(C)c(-n2nnnc2SCC(=O)c2cc3ccccc3o2)c(C)c1 | inconclusive: 9.91%
56 | CN(Cc1ccc(OC(F)F)cc1)Cc1nc2c(Br)cc(Br)cc2c(=O)[nH]1 | inconclusive: 22.2%
57 | Cc1ccc(-c2cnn3c(N4CCOCC4)cc(C)nc23)cc1 | inactive: -10.5%
58 | O=C(NC1CCCC1)C(c1ccco1)N(C(=O)c1ccco1)c1ccc(F)cc1 (stereo not given) | inconclusive: 20.5%
59 | COc1c(/C=N/NC(N)=S)c(C)nn1-c1ccccc1 | inactive: 1.75%
60 | CCOc1ccc(OC(=O)c2cccc(S(=O)(=O)N3CCN(C)CC3)c2)cc1 | inactive: 1.73%
61 | O=C(CCNc1cc(Cl)cc(Cl)c1)c1cccs1 | inconclusive: 15.2%
62 | Cc1onc(-c2ccccc2)c1-c1n[nH]c(=S)n1-c1ccc(C(=O)O)cc1 | inactive: 1.44%
63 | CCOC(=O)C(C(=O)OCC)C1OC(=O)c2cc3c(cc21)C(=O)OC3C(C(=O)OCC)C(=O)OCC (stereo not given) | inconclusive: 14.8%
64 | COc1cccc(-c2c(C(=O)N/N=C/c3ccc(C)o3)nnn2-c2nonc2N)c1 | inconclusive: 19.7%
65 | COc1ccc(C(=O)NCC(=O)N/N=C/c2ccc(C)o2)cc1OC | active: 56%
66 | CC(C)(C)C(=O)NNc1nc(-c2ccccc2)c2cc(Br)ccc2n1 | inconclusive: 15.5%

Some values from above.
inhibition with `CCOC(=O)C(C(=O)OCC)C1OC(=O)c2cc3c(cc21)C(=O)OC3C(C(=O)OCC)C(=O)OCC` (stereo not given) is entered as inconclusive: 14.8%
inhibition with `Cc1ccc2c(c1)-c1cc(C)nn1C(c1ccc3c(c1)OCO3)N2` (stereo not given) is entered as inactive: -3.9%
inhibition with `CN(Cc1ccc(OC(F)F)cc1)Cc1nc2c(Br)cc(Br)cc2c(=O)[nH]1` is entered as inconclusive: 22.2%

Going on with the list:

Row | Structure (SMILES) | inhibition
67 | Cc1ccc(NC(=O)CNC(=O)c2cccs2)c(O)c1 | inconclusive: 14.6%
68 | CCOc1ccc(C(=O)/C=C/Nc2ccc(S(=O)(=O)N=C(N)N)cc2)cc1 | inconclusive: 32.4%
69 | O=c1[nH]c(/C=C\c2cccc(F)c2)nc(O)c1[N+](=O)[O-] | inactive: -3.8%
70 | Cc1nc(Cl)c(Cl)n1CCOc1ccccc1 | inactive: 0.311%
71 | CCOC(=O)C1CCN(S(=O)(=O)c2ccc3c(ccn3C)c2)CC1 | inconclusive: 15.6%
72 | Cc1cc(N2C3CCC2CC(O)(c2ccc(F)cc2)C3)nc(-c2ccccc2)n1 (stereo not given) | inconclusive: 22%
73 | CC(=O)C(Sc1nc(N2CCOCC2)nc(N2CCOCC2)n1)C(=O)Nc1ccccc1 (stereo not given) | inconclusive: 23.9%
74 | O=S1(=O)N=C(Nc2nncs2)c2ccccc21 | inactive: 9.95%
75 | Cn1c(=O)c2c(nc(N/N=C/c3cccs3)n2Cc2ccccc2)n(C)c1=O | inconclusive: 14.8%
76 | CCOc1ccccc1N1CSC2=C(C#N)C(c3c(OC)ccc4ccccc34)CC(=O)N2C1 (stereo not given) | inconclusive: 25.1%
77 | CCCCCCSc1ccc([C@@H]2[C@@H]3C(=O)N(C)C(=O)[C@@H]3[C@]3(C(=O)OC)CCCCN23)cc1OC | active: 36.1%
78 | CSc1ccccc1C(=O)NCCCn1ccnc1 | inactive: 4.29%
79 | COc1cccc(C(=O)Cn2c(=O)n(CCC(=O)NCC3CCCO3)c(=O)c3cc(OC)c(OC)cc32)c1 (stereo not given) | inconclusive: 9.31%
80 | Cn1cncc1C#Cc1ccc2c(=O)c3ccccc3oc2c1 | inactive: -4.31%
81 | O=C(c1cc2cc(Br)cc(Br)c2oc1=O)N1CCOCC1 | inconclusive: 22.7%
82 | COc1ccc(-c2noc(-c3ccco3)n2)cc1OC | inconclusive: 25.5%
83 | Cc1ccc(S(=O)(=O)ON2C(=O)c3ccccc3C2=O)c(C)c1 | active: 59.1%
84 | CC1CC(C)CN(CC(=O)N2CCCc3c2c(=O)oc2ccc(OCc4ccccc4)cc32)C1 (stereo not given) | inconclusive: 20.3%
85 | CC(C)CSc1n[nH]c(=S)s1 | inactive: -0.0783%
